# Screening data, single-dose tests

The chains behind the UniProt entries cited, without tags or fusion partners.
UniProt P9WNZ1, whole entry: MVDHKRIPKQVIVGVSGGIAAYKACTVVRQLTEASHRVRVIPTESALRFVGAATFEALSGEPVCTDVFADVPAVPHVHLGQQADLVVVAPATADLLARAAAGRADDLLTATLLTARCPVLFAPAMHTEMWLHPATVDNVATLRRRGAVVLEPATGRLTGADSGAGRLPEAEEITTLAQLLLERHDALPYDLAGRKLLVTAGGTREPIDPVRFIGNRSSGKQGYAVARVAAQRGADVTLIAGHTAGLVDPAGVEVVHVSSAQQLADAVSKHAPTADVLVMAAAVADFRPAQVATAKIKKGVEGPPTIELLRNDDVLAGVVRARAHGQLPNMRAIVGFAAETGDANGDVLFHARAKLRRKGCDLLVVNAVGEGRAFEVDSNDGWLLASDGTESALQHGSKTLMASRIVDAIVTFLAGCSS
UniProt P9WFT3, whole entry: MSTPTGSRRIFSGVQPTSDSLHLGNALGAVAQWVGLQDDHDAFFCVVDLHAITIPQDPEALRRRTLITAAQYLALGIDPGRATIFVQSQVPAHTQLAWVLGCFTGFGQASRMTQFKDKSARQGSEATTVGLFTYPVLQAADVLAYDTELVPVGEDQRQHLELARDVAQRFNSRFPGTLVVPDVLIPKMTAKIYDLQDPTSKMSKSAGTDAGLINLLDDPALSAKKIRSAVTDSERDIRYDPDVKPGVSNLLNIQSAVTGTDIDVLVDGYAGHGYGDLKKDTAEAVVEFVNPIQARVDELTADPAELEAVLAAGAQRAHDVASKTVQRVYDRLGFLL
UniProt I6X8D2, whole entry: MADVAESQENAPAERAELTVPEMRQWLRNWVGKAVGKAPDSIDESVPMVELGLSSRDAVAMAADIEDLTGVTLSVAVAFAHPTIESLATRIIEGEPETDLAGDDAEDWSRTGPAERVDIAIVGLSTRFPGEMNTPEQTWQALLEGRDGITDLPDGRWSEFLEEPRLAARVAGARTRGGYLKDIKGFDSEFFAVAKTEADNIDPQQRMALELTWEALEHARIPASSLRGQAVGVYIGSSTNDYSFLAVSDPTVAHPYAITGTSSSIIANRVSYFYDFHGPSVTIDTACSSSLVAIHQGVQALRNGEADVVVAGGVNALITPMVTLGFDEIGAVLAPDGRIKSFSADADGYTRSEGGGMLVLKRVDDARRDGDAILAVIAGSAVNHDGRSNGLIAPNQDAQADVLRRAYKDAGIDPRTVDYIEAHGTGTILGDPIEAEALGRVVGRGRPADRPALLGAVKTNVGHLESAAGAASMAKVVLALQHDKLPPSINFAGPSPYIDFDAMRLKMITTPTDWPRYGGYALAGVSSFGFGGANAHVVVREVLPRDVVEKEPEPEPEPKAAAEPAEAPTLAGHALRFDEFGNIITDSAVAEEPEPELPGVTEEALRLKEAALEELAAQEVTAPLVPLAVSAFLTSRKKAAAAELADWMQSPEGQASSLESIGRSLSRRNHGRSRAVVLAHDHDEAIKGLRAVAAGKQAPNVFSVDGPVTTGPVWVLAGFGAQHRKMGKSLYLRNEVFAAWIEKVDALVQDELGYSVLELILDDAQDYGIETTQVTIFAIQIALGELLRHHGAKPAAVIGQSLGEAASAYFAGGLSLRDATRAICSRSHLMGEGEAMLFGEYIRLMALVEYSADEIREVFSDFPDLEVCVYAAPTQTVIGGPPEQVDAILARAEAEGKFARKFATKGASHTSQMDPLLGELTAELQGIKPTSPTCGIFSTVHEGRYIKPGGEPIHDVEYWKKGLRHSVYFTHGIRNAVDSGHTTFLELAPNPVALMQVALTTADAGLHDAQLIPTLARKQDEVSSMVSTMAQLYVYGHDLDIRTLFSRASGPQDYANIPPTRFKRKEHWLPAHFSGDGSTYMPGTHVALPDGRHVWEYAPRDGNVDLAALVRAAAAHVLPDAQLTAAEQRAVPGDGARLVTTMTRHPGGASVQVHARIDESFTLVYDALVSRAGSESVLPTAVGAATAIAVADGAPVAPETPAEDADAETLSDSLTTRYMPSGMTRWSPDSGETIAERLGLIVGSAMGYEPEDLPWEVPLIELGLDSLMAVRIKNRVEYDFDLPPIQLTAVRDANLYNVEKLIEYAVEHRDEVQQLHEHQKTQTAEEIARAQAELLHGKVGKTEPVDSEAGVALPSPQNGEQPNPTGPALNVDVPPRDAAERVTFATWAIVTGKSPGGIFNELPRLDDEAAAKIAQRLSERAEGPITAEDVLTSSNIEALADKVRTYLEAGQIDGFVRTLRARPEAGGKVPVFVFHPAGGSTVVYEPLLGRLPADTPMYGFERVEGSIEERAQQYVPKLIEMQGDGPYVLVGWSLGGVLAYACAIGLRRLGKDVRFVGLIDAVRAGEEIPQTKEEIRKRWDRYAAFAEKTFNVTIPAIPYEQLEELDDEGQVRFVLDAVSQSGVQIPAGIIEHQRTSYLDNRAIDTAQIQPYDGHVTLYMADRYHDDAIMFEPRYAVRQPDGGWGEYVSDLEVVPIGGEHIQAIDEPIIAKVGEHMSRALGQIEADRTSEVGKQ

The values are deposited in ChEMBL (CHEMBL3988442, “University of Dundee, Small-Polar-MMV Screening Library” (2021)).

A: 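Enzyme assay of CoaBC with a phosphate dye (Biomol Green) read at 650 nm. Target: Coenzyme A biosynthesis protein CoaBC, Mycobacterium tuberculosis (UniProt P9WNZ1). Tested at 30 µM. Direction is inferred from only a few compounds that gave an IC50; most scored high, so higher reads as stronger inhibition. Most strong results did not repeat in a second test. Size under these conditions: about 67,000 compounds, about 40 of them at 50% or above in at least one test.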
B: 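Tryptophan-tRNA ligase, Mycobacterium tuberculosis (UniProt P9WFT3). Enzyme assay of tryptophanyl-tRNA synthetase; the read-out is not stated. Tested at 10 µM. Direction is not recorded; retested compounds ran higher, which suggests that high means inhibition. Size under these conditions: about 65,000 compounds, about 64 of them at 50% or above in at least one test.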
C: 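Polyketide synthase Pks13, Mycobacterium tuberculosis (UniProt I6X8D2). Enzyme assay of the thioesterase domain of polyketide synthase 13; the read-out is not stated. Concentration: 30 µM. The record gives no direction; the compounds picked for IC50 retests had high values, so higher reads as stronger inhibition. Size under these conditions: about 67,000 compounds, about 300 of them at 50% or above in at least one test.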

Each number is a percent effect as filed.
The controls that fix the scale are not given in the record; negative values are as filed.
Compounds were drawn at random from those tested, without regard to their results.

For CC(C)c1noc(C2CCCN2S(=O)(=O)N2CCCCCC2)n1 (centres unmarked) the result was A: 0.4016%; B: -0.273%; C: -47.1%.
For CC(=O)N1CCC(C(=O)N2CCC(=Cc3cccc(F)c3)CC2)CC1 the result was A: 3.465%; B: -5.74%; C: -10.84%.
For CCn1cc(C(=O)Nc2cc(C(=O)OC)ccc2C(=O)OC)cn1 the result was A: 1.566%; B: -1.713%; C: 0.5518%.
For CCN(CC1CCOC1)C(=O)c1ccc(N2CCOCC2)c(F)c1 (centres unmarked) the result was A: 3.448%; B: 18.71%; C: -13.65%.
For Cc1nc(O)cc(CN2C[C@H](NC(=O)C3CCCC3)[C@@H](C3CC3)C2)n1 the result was A: 4.294%; B: 3.372%; C: -5.065%.
For CCCN1CCN(C(=O)Nc2ccccc2Cl)[C@H]2CS(=O)(=O)C[C@H]21 the result was A: -9.45%; B: -2.563%.
For CCN1C(=O)CCCC12CCCN(C(=O)c1cc(C)oc1C)C2 (centres unmarked) the result was A: 2.703%; B: -6.686%; C: -15.94%.
For COCCn1c2c(ccc1=O)CC(NCc1cnn(C)c1)CC2 (centres unmarked) the result was A: 1.361%; C: -51.72%.
For CO[C@@H]1CC[C@H]2[C@H]1OCCN2C(=O)C1=CCCC1 the result was A: -3.169%; B: 3.418%; C: -3.331%.
For COCc1cc(CNC(=O)c2c(C)c(C)cc(C)c2C)n[nH]1 the result was A: 1.623%; B: 2.658%; C: 12.94%.
For Cc1cc(NC(=O)CN2CCc3c(nc(C(C)C)n3C)C2)on1 the result was A: 2.296%; B: -1.975%; C: -16.18%.
For Cc1cc(COc2ccc(OC3CCCCNC3=O)cc2)on1 (centres unmarked) the result was A: 8.208%; B: -3.087%; C: -20.68%.
For CCc1ccccc1OC1CN(C(=O)CN(C)Cc2cccnc2)C1 the result was A: 3.23%; B: -1.652%; C: -71.54%.
For Cc1n[nH]c(C)c1-c1cnc(CC2CCN(C)C2)cn1 (centres unmarked) the result was A: 2.591%; B: -0.5286%; C: -26.07%.
For CC(c1ccccc1F)N(C(=O)CSCC(N)=O)C1CC1 (centres unmarked) the result was A: 2.016%; B: -1.143%.
For CC(C)Cc1noc(C2CCCN(C(=O)CCc3cnn(C)c3)C2)n1 (centres unmarked) the result was A: -5.202%; B: 0.6461%; C: -0.6894%.
For CC(C)N1CCc2onc(Cn3cccn3)c2C1 the result was A: -0.611%; B: -6.132%; C: -18.45%.
For CN(C)c1ncc(-c2cncnc2)c(C2CNCCO2)n1 (centres unmarked) the result was A: 0.4566%; B: -8.925%; C: -3.893%.
For COCCN1CCCC(O)(CN2CCN(c3ccncc3C)CC2)C1=O (centres unmarked) the result was A: 0.7937%; B: 5.346%; C: -19.47%.
For COCCN1CCN(Cc2cccc(C(N)=O)c2)CC1C (centres unmarked) the result was A: 4.824%; B: -2.449%; C: -15.48%.
For COc1ccc(CC(=O)NC2CCc3nc(C)cn3C2)cc1 (centres unmarked) the result was A: 6.612%; B: -3.548%; C: -7.244%.
For Cn1cc(N2C(=O)CC[C@@H]3[C@H]2CCN3CCc2ccccc2)cn1 the result was A: -9.001%; B: -0.08865%; C: -41.52%.
For CN1CCOCC12CCN(c1ccc(C#N)cc1)CC2 the result was B: -0.1079%; C: -24.6%.
For CSc1ccc(CCNC(=O)Cc2c(C)n[nH]c2C)cc1 the result was A: -1.09%; B: 0.9331%; C: -5.384%.
For CCN(Cc1cnn(C)c1)C(=O)c1cc2ccccc2c(=O)[nH]1 the result was A: 2.161%; B: 5.498%; C: -13.3%.
For CC(C)(C)Oc1ccc(C(=O)N2CCOCC2c2ncon2)cc1 (centres unmarked) the result was A: 3.984%; B: -3.534%; C: -14.73%.
For COc1cccc(Cl)c1-c1cc(CN)ccc1F the result was A: -29.06%; B: -8.637%; C: -49.72%.
For Cc1nn(C)c(N(C)C)c1CNCC(O)COc1ccccc1 (centres unmarked) the result was A: 6.61%; B: -0.784%; C: -21.93%.
For COc1cccc(OC2CN(C(=O)c3sccc3C)C2)c1 the result was A: -2.581%; B: 1.25%; C: -20.91%.
For c1cc(CN2CCCC3(COCCN(Cc4c[nH]nn4)C3)C2)cs1 (centres unmarked) the result was A: 0.9772%; B: -0.3255%; C: -21.39%.
For N#Cc1ccc(CS(=O)(=O)NC(=O)c2ccc(C#N)cc2)cc1 the result was A: 1.463%; B: -6.049%; C: -24.68%.
For Cc1cc(CN2CCN(C(=O)CCc3cccc(F)c3F)CC2)on1 the result was A: 4.051%; B: -0.0774%; C: 0.5918%.
For COc1cccc(-c2noc(C3CCN(Cc4ccccc4F)C3)n2)c1 (centres unmarked) the result was A: -0.1205%; C: 8.484%.
For COc1ccc(CNCc2ccc(N3CCCCC3)nc2)cc1OC the result was A: 6.477%; B: -1.411%; C: -13.14%.
For Cc1ccc(CNC(C)(C)c2noc(C(C)(C)C)n2)o1 the result was A: 6.796%; B: 3.482%; C: -0.4018%.
For O=C(O)CC(CC(=O)N(Cc1ccsc1)C1CC1)c1cccs1 (centres unmarked) the result was A: 7.753%; B: 12.78%; C: -11.81%.
For CC(=O)NCC(=O)N1Cc2cc(-c3cc[nH]n3)ccc2C1c1cnco1 (centres unmarked) the result was B: 2.05%; C: 8.329%.
For CC(C)CC1(C(=O)NCCc2nncn2C2CC2)CCC1 the result was A: 1.463%; B: -2.75%; C: -26.43%.